According to paper PMC7819943, “Rice protein-binding microarrays: a tool to detect cis-acting elements near promoter regions in rice”:
The list shows a part of the results.

Sequences of proteins named here, by UniProt entry; tags and fusion partners are left off.
UniProt Q0JBA9, entry or part of it: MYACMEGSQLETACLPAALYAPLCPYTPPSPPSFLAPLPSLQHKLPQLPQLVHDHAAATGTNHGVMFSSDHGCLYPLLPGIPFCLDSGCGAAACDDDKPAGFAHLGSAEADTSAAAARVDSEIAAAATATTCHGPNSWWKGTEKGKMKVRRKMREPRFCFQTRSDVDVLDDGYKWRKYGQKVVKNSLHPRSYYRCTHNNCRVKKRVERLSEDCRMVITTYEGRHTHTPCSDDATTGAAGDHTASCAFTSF

Target: OsWRKY34 (Oryza sativa, UniProt Q0JBA9 1-250)
Experiment: protein-binding microarray (RPBM); PBS, 2% BSA, 51.3 ng/ul salmon testes DNA, 50 uM zinc acetate, 200 nM TF, 25 C, 1 h; high values mean tight binding
Details: protein: recombinant; tags: N-terminal polyhistidine and DsRed monomer fusion (pET32a); label: CyDye5-dUTP incorporated in the synthesized complementary strand; 3' TTTTT single-stranded linker to array surface; dsDNA, one strand shown
In short: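 The binding signal is fluorescence intensity per array feature (arbitrary units). Readings came from an Axon 4000B scanner after a washed, 2% BSA-blocked, double-stranded custom Agilent array had been incubated for 1 h at 25 °C with 200 nM protein and 50 µM zinc acetate. The protein was a Ni–NTA-purified transcription factor fused N-terminally to polyhistidine and DsRed, expressed in E. coli BL21-CodonPlus.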

Sequence | binding signal
CCTAGACCCCTTCTCACGCCGCCAGCCCGTCACACCGAGTCGGAGTCACCTAGTGCAG | 8790 fluorescence intensity (a.u.)
CCGTCTCTTCTTCATTACAGCGACACCAACGTTGATTTCCCGGAGTCACCTAGTGCAG | 10800 fluorescence intensity (a.u.)
TGAGTTGTTTATTATCCTTCATTTCGAGTTGGGACCTTCACGGAGTCACCTAGTGCAG | 8190 fluorescence intensity (a.u.)
TTGCTCTTGTTAATGTTTGGCTTTCTTCTTCTTCTGCTGCCGGAGTCACCTAGTGCAG | 8600 fluorescence intensity (a.u.)
ATTCGCGAAAGCTCAGCTGCTTCTGCTTCTTCTTCTTCTTCGGAGTCACCTAGTGCAG | 9420 fluorescence intensity (a.u.)
AACACACACATATATACACTTGCTTTGACTAACAGAGTCTCGGAGTCACCTAGTGCAG | 10400 fluorescence intensity (a.u.)
GCAAGATCTCCATGATGCGACAGCTCTACCGTTACAATTACGGAGTCACCTAGTGCAG | 8100 fluorescence intensity (a.u.)
GTCGGATCGCCACCCACCTCGCCGCCGCTGCTTGCTTCACCGGAGTCACCTAGTGCAG | 10500 fluorescence intensity (a.u.)
GTGCCAGTCACTCCGGTGGCCCATTTTTTCTTCCTTTTTCCGGAGTCACCTAGTGCAG | 8620 fluorescence intensity (a.u.)
GATGATCCTTTAGTTTGTTTCAGTTTGATTCGTTCTTTACCGGAGTCACCTAGTGCAG | 16100 fluorescence intensity (a.u.)
TTAGTATGTTAAGCTCTTTGTTTCTTGATAGCTGGAAGCCCGGAGTCACCTAGTGCAG | 8370 fluorescence intensity (a.u.)
GTTGGGGAGAAGGGGTGGTAAAATTTCTGGTATTATGGTTCGGAGTCACCTAGTGCAG | 11700 fluorescence intensity (a.u.)
GTCCCAACCCTCTGTCTTCTTCTACCCGCGTACTACTCCACGGAGTCACCTAGTGCAG | 10500 fluorescence intensity (a.u.)
AATTTACCGTCTTCTTAATTGTTTTTAGGTAGGAGTACAACGGAGTCACCTAGTGCAG | 9170 fluorescence intensity (a.u.)
TTCCTATCCGAATCCTATATTTTTTTTTCTTATTTCTCTACGGAGTCACCTAGTGCAG | 8750 fluorescence intensity (a.u.)
ATGCTTGATCTTCTTGGTTGCCTAACCATCGATTTTTTTCCGGAGTCACCTAGTGCAG | 10300 fluorescence intensity (a.u.)
GGTTCTTCTGAGCGGGGCCGGGGCGGGGCGGCAGCTGGGGCGGAGTCACCTAGTGCAG | 30000 fluorescence intensity (a.u.)
CTCCCTTCATCTTTTCTTTCATGTACAATGCACAAAACTTCGGAGTCACCTAGTGCAG | 8040 fluorescence intensity (a.u.)
CGGCGTGATTCTCCGTGTCTGCTGCTCTGCTCCACGTATTCGGAGTCACCTAGTGCAG | 8170 fluorescence intensity (a.u.)
CGCTTGGTTTGGGCGTTTTGATGTTACAAATTCCTCGTTTCGGAGTCACCTAGTGCAG | 8850 fluorescence intensity (a.u.)
TTGAGTTTTTGTTTGCATTGTTTGACTACTCGTCTTATTTCGGAGTCACCTAGTGCAG | 9450 fluorescence intensity (a.u.)

Sequence | binding signal
ATACGGTAGAGAAGATGGTCCTTTTTCTTGTCCTTTTTCTCGGAGTCACCTAGTGCAG | 8700 fluorescence intensity (a.u.)
TGCGTACACTCCTTTGAAACCCCATTGCTATGTAGACAATCGGAGTCACCTAGTGCAG | 8020 fluorescence intensity (a.u.)
CATTTGCCTGATTAGTCCATTCCCCACGGTTTATATTTTCCGGAGTCACCTAGTGCAG | 13500 fluorescence intensity (a.u.)
AGCTTCAACCTCTTGTAACTTTCCTTTGAGTATATCTCTCCGGAGTCACCTAGTGCAG | 10200 fluorescence intensity (a.u.)
TCTTTTTTTGTTGTTTGCTGGTTGTATGGTTTTTTGGTATCGGAGTCACCTAGTGCAG | 9460 fluorescence intensity (a.u.)
CTGGTGTGTTACTCTGCTCTTACTCGTTTTCTGCCTGATCCGGAGTCACCTAGTGCAG | 10400 fluorescence intensity (a.u.)
CCCTGTACGTATGTGTTTCCGTGTTAATTTCTGTCTCTTTCGGAGTCACCTAGTGCAG | 9470 fluorescence intensity (a.u.)
ATATTGGCTCCATATTCTCCTCTCTTGCACCTCAGGTATACGGAGTCACCTAGTGCAG | 10200 fluorescence intensity (a.u.)
CGCCATCACTGCCAAGCTCGCCGGCTACATCGCCCGCGCCCGGAGTCACCTAGTGCAG | 8040 fluorescence intensity (a.u.)
AAATTATTTCCGATTTTTCCTTATTTTTTCCACCATTTCCCGGAGTCACCTAGTGCAG | 9490 fluorescence intensity (a.u.)
TTCTTGTTCTTCATGGATGATACACCCTTGTTCTTGTTGCCGGAGTCACCTAGTGCAG | 9610 fluorescence intensity (a.u.)
CTTAGCCAGCGTTTCTAGTTTCTCTTTCTTTTCCTGTTCCCGGAGTCACCTAGTGCAG | 8720 fluorescence intensity (a.u.)
GATTGCTCCACACCATCTTCGCCTTCGAGATGACTCTCGTCGGAGTCACCTAGTGCAG | 8540 fluorescence intensity (a.u.)
TGATTGGTGAGCTCGTGTTGGTATTTTTGTTTGTTTGTAGCGGAGTCACCTAGTGCAG | 8530 fluorescence intensity (a.u.)
TACATAGAAACACTTCATGATTTTACCCTTTTACAGTTCTCGGAGTCACCTAGTGCAG | 10200 fluorescence intensity (a.u.)
CGACGGGGCCATGTGGTTTGGTTTTGTTTAGCATCCCGTCCGGAGTCACCTAGTGCAG | 9350 fluorescence intensity (a.u.)
TGGATCATATCTCGTCGGCCTGATTAACAGCAACCATAGACGGAGTCACCTAGTGCAG | 8250 fluorescence intensity (a.u.)
GCGTTGTACCTGGTGTTGGTGTGAATAATATTGGGCGTTGCGGAGTCACCTAGTGCAG | 8140 fluorescence intensity (a.u.)
CAGTTCTTCAACACAACGTTGCAGCTCATTCTTCTCCCTTCGGAGTCACCTAGTGCAG | 11200 fluorescence intensity (a.u.)
AATCTTCTACATACACGCTTCATTCCATTTTTGATAGATTCGGAGTCACCTAGTGCAG | 9060 fluorescence intensity (a.u.)
TCCCATGGCTCGCGTTCGGCCACGTGCTCCCTTACCTAGACGGAGTCACCTAGTGCAG | 8900 fluorescence intensity (a.u.)

Pulled one by one from above (three):
Sequence | binding signal
TTGCTCTTGTTAATGTTTGGCTTTCTTCTTCTTCTGCTGCCGGAGTCACCTAGTGCAG | 8600 fluorescence intensity (a.u.)
TGAGTTGTTTATTATCCTTCATTTCGAGTTGGGACCTTCACGGAGTCACCTAGTGCAG | 8190 fluorescence intensity (a.u.)
GCGTTGTACCTGGTGTTGGTGTGAATAATATTGGGCGTTGCGGAGTCACCTAGTGCAG | 8140 fluorescence intensity (a.u.)
